In test [1] the target is T1, PTP4A1 (human (endogenous in HN6 and SCC25)) (UniProt Q93096).
T1 sequence: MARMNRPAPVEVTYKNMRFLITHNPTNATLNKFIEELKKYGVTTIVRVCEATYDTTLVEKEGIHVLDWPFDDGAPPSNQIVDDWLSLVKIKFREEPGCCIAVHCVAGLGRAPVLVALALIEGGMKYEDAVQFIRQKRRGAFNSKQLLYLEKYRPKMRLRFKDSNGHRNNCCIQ
The test is described as follows: co-IP; endogenous proteins in HN6 (and, for PTP4A1 with PKM2, SCC25) cell lysates; lysis in ice-cold Co-IP buffer (TBS pH 7.4, 1% NP-40 or Triton X-100, inhibitors); antibody overnight at 4°C, Protein A/G agarose beads, Western blot; control IgG IP alongside. (In general: In western blotting, separated proteins are transferred to a membrane and probed.)

Amino acid sequences for entries named in this document (tags omitted).
UniProt P14618: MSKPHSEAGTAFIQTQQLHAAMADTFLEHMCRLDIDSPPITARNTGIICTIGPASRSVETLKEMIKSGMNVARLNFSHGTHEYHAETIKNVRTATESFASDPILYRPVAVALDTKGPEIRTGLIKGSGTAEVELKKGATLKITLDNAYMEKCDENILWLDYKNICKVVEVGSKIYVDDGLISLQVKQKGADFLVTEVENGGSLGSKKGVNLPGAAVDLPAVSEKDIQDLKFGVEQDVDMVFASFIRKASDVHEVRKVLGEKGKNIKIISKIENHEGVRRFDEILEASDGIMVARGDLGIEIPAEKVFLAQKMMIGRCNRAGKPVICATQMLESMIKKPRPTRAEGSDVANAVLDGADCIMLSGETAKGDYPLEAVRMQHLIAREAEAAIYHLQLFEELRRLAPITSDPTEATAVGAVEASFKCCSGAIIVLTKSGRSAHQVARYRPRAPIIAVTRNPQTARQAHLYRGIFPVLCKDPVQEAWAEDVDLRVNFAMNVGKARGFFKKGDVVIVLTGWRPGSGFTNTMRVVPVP

Test [2] has as its target T2, GINS complex subunit 2 (GINS2) (human (endogenous in HN6)) (UniProt Q9Y248).
T2 sequence: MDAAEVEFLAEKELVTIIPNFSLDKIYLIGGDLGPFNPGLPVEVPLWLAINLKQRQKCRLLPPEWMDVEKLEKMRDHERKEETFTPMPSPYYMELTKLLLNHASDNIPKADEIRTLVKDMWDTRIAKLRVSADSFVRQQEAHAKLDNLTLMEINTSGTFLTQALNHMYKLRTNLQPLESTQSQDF
Described as above.

No constants are given. Whether binding was seen depends on the method and setting. Binding seen in cells or lysates may run through a third protein. Some results given as binding are weak or reduced against the parent protein; the word gives no strength.

Turning to PKM2 (from UniProt P14618 1-531), the binding entry in test [1] is recorded as “binds”.

B1: GINS complex subunit 2 (GINS2) (protein, UniProt Q9Y248 1-185)
chain: MDAAEVEFLAEKELVTIIPNFSLDKIYLIGGDLGPFNPGLPVEVPLWLAINLKQRQKCRLLPPEWMDVEKLEKMRDHERKEETFTPMPSPYYMELTKLLLNHASDNIPKADEIRTLVKDMWDTRIAKLRVSADSFVRQQEAHAKLDNLTLMEINTSGTFLTQALNHMYKLRTNLQPLESTQSQDF
On to B1, for which, in test [1], the binding entry is “binds”.

B2: PTP4A1 (protein, UniProt Q93096 1-173)
chain: MARMNRPAPVEVTYKNMRFLITHNPTNATLNKFIEELKKYGVTTIVRVCEATYDTTLVEKEGIHVLDWPFDDGAPPSNQIVDDWLSLVKIKFREEPGCCIAVHCVAGLGRAPVLVALALIEGGMKYEDAVQFIRQKRRGAFNSKQLLYLEKYRPKMRLRFKDSNGHRNNCCIQ
As for B2, the binding entry in test [2] was “binds”.
